From ChEMBL document CHEMBL1124320, “2,2-Difluoro-5-hexyne-1,4-diamine: a potent enzyme-activated inhibitor of ornithine decarboxylase” (J Med Chem, 1989)

Molecular target: T1, Ornithine decarboxylase (Rattus norvegicus, UniProt P09057)
T1 sequence (P09057 whole entry): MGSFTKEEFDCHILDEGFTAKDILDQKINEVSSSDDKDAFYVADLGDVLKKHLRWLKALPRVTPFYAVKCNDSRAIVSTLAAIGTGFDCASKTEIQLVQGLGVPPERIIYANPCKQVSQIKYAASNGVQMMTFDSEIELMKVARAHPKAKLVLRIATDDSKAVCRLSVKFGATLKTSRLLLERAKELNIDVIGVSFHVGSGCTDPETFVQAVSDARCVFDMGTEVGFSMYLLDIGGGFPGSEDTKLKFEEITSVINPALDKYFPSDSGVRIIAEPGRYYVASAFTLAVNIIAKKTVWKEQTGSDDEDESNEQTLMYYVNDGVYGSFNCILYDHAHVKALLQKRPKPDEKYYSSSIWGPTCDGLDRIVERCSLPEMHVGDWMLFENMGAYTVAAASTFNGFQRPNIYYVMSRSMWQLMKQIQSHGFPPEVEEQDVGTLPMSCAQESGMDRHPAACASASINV
Test: In vitro inhibition against ornithine decarboxylase
In short: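 Time-dependent inactivation of partially purified rat liver ODC (thioacetamide-induced, acid treatment at pH 4.6). Enzyme incubated at 37 °C in 30 mM phosphate pH 7.1, 5 mM DTT and 0.1 mM pyridoxal phosphate with varied inhibitor concentrations. Aliquots were assayed at intervals. Half-inactivation times were plotted against 1/[I] (Kitz–Wilson, least-squares fit) to give apparent K_I and τ1/2.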

C#CC(N)CC(F)(F)CN (stereo unspecified)
Ki: 10 µM
